The results in this text go back to paper PMC5992204.

Sequences of proteins named here, by UniProt entry; tags and fusion partners are left off.
UniProt Q61967: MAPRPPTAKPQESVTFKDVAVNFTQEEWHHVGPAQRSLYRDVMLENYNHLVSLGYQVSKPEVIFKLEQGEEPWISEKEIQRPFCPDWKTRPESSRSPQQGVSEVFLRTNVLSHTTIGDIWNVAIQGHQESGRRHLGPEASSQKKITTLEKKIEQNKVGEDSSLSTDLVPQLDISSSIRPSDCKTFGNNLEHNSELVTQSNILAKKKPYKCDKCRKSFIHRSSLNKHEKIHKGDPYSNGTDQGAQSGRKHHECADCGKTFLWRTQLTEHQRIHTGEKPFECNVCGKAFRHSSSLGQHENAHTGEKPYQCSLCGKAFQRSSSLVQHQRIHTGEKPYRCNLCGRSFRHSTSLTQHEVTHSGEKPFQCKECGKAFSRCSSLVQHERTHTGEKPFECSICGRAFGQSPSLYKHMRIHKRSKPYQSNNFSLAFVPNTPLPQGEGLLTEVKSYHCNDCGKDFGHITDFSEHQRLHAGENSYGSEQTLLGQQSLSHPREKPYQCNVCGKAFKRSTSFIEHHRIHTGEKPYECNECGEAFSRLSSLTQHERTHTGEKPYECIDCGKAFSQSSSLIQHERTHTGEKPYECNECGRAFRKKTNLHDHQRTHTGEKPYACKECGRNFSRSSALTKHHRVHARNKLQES
UniProt Q6PGB8: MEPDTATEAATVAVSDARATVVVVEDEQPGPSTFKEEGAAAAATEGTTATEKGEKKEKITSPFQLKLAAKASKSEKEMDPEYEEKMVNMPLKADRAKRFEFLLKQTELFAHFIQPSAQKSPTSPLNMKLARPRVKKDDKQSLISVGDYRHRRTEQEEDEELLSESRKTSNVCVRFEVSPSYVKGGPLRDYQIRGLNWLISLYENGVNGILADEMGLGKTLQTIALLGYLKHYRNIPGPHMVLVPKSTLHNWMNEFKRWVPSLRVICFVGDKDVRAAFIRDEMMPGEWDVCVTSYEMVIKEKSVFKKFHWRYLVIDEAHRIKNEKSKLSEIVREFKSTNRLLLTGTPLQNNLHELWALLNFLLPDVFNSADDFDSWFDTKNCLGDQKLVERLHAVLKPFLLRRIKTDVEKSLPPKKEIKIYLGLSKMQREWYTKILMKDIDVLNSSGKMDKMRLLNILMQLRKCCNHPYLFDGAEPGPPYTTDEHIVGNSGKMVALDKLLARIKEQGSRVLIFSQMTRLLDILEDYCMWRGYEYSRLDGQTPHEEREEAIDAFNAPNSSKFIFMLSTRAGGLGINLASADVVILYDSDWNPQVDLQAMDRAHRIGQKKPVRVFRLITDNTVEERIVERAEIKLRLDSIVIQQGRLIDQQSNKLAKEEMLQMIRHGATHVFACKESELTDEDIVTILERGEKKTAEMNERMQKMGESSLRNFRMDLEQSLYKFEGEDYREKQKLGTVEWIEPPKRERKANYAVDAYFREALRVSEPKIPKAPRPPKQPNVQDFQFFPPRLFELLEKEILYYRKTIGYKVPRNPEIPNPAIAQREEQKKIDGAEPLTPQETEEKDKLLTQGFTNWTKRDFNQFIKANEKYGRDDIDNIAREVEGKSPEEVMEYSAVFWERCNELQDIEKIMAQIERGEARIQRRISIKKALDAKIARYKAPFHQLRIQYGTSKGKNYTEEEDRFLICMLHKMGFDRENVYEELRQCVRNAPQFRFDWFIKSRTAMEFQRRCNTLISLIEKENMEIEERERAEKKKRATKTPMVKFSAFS
UniProt A2A654: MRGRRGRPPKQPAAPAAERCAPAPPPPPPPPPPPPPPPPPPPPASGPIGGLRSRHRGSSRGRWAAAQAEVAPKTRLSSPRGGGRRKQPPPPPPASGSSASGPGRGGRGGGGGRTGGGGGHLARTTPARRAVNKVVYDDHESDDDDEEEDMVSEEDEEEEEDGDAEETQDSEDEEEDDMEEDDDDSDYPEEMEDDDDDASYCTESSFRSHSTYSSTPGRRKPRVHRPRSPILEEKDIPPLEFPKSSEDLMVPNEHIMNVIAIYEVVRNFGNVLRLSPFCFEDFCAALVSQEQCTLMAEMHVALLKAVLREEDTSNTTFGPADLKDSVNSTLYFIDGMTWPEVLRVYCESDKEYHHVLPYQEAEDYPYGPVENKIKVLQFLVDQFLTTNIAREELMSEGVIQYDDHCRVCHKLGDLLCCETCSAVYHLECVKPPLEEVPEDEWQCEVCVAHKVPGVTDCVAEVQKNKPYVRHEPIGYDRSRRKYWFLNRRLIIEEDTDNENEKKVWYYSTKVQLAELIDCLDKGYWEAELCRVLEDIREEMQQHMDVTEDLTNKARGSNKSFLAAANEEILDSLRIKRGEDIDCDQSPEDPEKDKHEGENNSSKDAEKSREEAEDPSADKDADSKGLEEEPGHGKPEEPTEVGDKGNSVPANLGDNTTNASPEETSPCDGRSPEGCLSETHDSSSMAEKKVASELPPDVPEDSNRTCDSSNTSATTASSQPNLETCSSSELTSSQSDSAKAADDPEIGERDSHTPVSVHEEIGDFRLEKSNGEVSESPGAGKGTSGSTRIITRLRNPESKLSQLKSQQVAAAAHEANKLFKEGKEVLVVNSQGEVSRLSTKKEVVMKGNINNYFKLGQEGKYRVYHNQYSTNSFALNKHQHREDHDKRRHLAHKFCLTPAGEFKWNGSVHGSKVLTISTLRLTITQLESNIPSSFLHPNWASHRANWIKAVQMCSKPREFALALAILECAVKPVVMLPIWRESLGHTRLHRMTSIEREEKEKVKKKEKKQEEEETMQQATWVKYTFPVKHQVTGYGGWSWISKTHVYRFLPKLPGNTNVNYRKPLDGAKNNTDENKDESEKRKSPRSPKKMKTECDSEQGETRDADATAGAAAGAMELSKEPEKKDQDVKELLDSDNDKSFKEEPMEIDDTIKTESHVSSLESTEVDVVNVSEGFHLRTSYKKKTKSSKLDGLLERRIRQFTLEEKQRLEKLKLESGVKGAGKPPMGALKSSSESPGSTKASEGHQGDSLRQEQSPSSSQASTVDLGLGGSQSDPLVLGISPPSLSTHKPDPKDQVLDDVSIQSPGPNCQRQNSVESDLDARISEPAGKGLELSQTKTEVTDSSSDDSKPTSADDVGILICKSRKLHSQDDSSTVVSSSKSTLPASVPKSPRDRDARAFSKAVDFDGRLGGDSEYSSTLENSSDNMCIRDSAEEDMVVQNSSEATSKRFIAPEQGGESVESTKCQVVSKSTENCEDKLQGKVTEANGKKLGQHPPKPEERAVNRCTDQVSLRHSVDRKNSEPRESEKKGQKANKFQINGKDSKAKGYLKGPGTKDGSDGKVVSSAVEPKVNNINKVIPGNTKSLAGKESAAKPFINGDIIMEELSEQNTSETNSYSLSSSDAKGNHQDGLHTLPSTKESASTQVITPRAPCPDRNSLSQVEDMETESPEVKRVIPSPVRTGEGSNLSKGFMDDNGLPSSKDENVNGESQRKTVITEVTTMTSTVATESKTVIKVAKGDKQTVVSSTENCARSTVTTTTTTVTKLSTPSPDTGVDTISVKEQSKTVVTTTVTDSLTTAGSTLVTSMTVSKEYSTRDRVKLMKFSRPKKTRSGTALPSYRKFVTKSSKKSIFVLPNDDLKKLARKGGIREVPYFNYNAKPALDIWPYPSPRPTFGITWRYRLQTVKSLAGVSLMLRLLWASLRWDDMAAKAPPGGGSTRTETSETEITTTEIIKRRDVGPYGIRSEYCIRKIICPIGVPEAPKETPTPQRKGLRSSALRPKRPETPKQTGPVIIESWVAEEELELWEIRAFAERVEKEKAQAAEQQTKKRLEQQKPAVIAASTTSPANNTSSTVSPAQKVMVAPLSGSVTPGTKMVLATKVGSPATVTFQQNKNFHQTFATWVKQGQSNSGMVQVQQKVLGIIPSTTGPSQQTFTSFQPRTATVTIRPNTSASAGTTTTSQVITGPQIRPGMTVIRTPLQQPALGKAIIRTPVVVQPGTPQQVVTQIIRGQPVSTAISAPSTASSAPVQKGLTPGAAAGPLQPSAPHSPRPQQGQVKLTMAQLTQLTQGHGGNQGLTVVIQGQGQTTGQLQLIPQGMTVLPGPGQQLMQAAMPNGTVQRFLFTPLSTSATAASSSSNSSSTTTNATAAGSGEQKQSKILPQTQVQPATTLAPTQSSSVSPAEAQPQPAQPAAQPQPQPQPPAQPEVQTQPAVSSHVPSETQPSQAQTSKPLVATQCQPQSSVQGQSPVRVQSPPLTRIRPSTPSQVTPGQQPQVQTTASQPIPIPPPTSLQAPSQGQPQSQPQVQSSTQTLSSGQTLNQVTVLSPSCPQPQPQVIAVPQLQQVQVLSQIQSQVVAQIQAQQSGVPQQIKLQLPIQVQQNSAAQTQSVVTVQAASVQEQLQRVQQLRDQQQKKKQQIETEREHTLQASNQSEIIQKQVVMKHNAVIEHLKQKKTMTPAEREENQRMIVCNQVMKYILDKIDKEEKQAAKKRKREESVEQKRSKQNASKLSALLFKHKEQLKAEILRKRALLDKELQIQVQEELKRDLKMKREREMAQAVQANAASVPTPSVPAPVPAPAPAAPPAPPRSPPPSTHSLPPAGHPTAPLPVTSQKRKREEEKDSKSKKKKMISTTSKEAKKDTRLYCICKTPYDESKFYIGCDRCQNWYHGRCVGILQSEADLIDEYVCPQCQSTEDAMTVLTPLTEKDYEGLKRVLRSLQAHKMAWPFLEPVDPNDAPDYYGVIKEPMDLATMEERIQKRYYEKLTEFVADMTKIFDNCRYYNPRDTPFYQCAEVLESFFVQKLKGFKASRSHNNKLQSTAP

The target in assay [1] is endogenous Zfp90 (mouse (endogenous in bone marrow cells)) (UniProt Q61967). Kind of assay: co-IP; mouse BM cell lysates incubated with anti-Zfp90; immunoblot; endogenous proteins.
For the next assay, the target named is Myc-tagged Zfp90 (mouse) (UniProt Q61967). Kind of assay: co-IP; Flag-Bptf, Myc-Zfp90, HA-Snf2l and His-Rbbp4 co-transfected into 293T cells for 36 h; RIPA lysis; antibody overnight at 4 °C, protein A/G agarose, immunoblot.
Another assay deals with GST-tagged Zfp90 (mouse) (UniProt Q61967). The assay is described as follows: pull-down; purified GST-Zfp90 incubated with His-Snf2l, His-Rbbp4 or Flag-Bptf at 4 °C for 4 h, then GST beads and western blot; both purified.

These are yes or no findings as the source states them, for the method shown. For some of these results: Binding seen in cells or lysates may run through a third protein. Some binding calls cover weakened binding; strength is not graded here.

As for “endogenous Snf2l (from UniProt Q6PGB8 1-1046)”, the binding result in assay [1] was “binds”.

HA-Snf2l (from UniProt Q6PGB8 1-1046): the binding entry with Myc-tagged Zfp90 (mouse) is reported as “binds”.

With “His-tagged Snf2l (from UniProt Q6PGB8 1-1046)”, the binding result in the assay with GST-tagged Zfp90 (mouse) was “binds”.

With “Flag tagged Bptf, purified (from UniProt A2A654 1-3036)”, the binding entry with GST-tagged Zfp90 (mouse) is “no binding”.
